Experimental data from ChEMBL document CHEMBL4613261, “Metabolic and Pharmaceutical Aspects of Fluorinated Compounds” (J Med Chem, 2020).
In brackets after ≈: the same amount, converted by molar mass.

Test: Aqueous solubility of the compound in pH 6.8 buffer

In the case of `Nc1nc2ccc(OC(F)(F)F)cc2s1` [RILUZOLE], the solubility is reported as 986 µM (≈ 231 µg/mL).
